{
  "source": "patent US9884091B2",
  "about": "“Treatment of neurological diseases” (Lancaster University Business Enterprises Limited, priority 2014, dated 2018)",
  "origin": "cited, not measured here",
  "key": {"[1]": {"system": "APP/PS1 mouse model of AD", "conditions": "cited from earlier work"}, "rat brain": {"system": "rat brain", "conditions": "cited from earlier work"}},
  "note": "For at least one compound, name, drawing or mass did not settle the structure.",
  "data": [
    {"smiles": "CCCCCCCCCCCCCCCC(=O)N[C@@H](CCC(=O)NCCCC[C@H](NC(=O)[C@H](C)NC(=O)[C@H](C)NC(=O)[C@H](CCC(N)=O)NC(=O)CNC(=O)[C@H](CCC(=O)O)NC(=O)[C@H](CC(C)C)NC(=O)[C@H](Cc1ccc(O)cc1)NC(=O)[C@H](CO)NC(=O)[C@H](CO)NC(=O)[C@@H](NC(=O)[C@H](CC(=O)O)NC(=O)[C@H](CO)NC(=O)[C@@H](NC(=O)[C@H](Cc1ccccc1)NC(=O)[C@@H](NC(=O)CNC(=O)[C@H](CCC(=O)O)NC(=O)[C@H](C)NC(=O)[C@@H](N)Cc1cnc[nH]1)[C@@H](C)O)[C@@H](C)O)C(C)C)C(=O)N[C@@H](CCC(=O)O)C(=O)N[C@@H](Cc1ccccc1)C(=O)N[C@H](C(=O)N[C@@H](C)C(=O)N[C@@H](Cc1c[nH]c2ccccc12)C(=O)N[C@@H](CC(C)C)C(=O)N[C@H](C(=O)N[C@@H](CCCNC(=N)N)C(=O)NCC(=O)N[C@@H](CCCNC(=N)N)C(=O)NCC(=O)O)C(C)C)[C@@H](C)CC)C(=O)O", "note": "[liraglutide]", "values": [
      {"measurement": "amyloid plaque load in the cortex and total amyloid levels in the brain", "setting": "[1]; APP/PS1 mice", "result": "reduce amyloid plaque load in the cortex and total amyloid levels in the brain"},
      {"measurement": "impairment in memory formation and synaptic plasticity", "setting": "[1]; APP/PS1 mice", "result": "prevent the impairment in memory formation and synaptic plasticity"},
      {"measurement": "inflammation response", "setting": "[1]; APP/PS1 mice", "result": "reduce the inflammation response"},
      {"measurement": "stem cell proliferation and neurogenesis in the dentate gyrus", "setting": "[1]; APP/PS1 mice", "result": "normalise stem cell proliferation and neurogenesis in the dentate gyrus"},
      {"measurement": "memory and plaque load at advanced stage of disease", "setting": "[1]; very old transgenic mice", "result": "memory can be improved and plaque load be reduced to some degree"},
      {"measurement": "long-term potentiation of synaptic transmission (LTP)", "setting": "rat brain", "result": "upregulate LTP"}
    ]}
  ]
}
